The experiment has as its system L1210 leukemia ip in BDF1 mice, survival T/C. The experiment can be described thus: NCI In Vivo Anticancer Drug Screen. Data for tumor model L1210 Leukemia (intraperitoneal) in B6D2F1 (BDF1) mice. The note with it: T/C endpoint: mean survival time, higher T/C = longer survival.
[1] abbreviates: dose: 48.0 mg/kg/injection, schedule: Q01DX001 (ip), vehicle: other.
The mark [2] stands for this setting: dose: 400.0 mg/kg/injection, schedule: Q04DX003 (ip), vehicle: saline with Tween-80.
[3] abbreviates: dose: 400.0 mg/kg/injection, schedule: Q01DX001 (ip), vehicle: saline.

This note sets out measurements from PubChem BioAssay AID248 (DTP/NCI, 2004).

SMILES strings stand for the structures. The list shows only some results of the screen, not a fair sample: it gathers tests that were run many times, whatever their T/C, doses with no T/C, and many T/C values between a quarter and a half above the control. Other doses and runs of a compound stand elsewhere. T/C gives the treated animals as a percentage of the vehicle group. Some entries give survivors of the animals treated and no T/C: the source holds a T/C of zero for them, seemingly a mark for toxic or unscored doses. Some survivor counts are full or nearly so, which does not show that the dose was tolerated: survival well below the control is almost never listed, so the zero probably covers shortened survival too. Survivors were counted at the toxicity check, usually on the fifth day, unless a day is given; later deaths do not show. Schedules are NCI's codes, taken here to give the interval after Q, in days (D) or hours (H), and the number of doses after X. Some schedule codes hold Z or #, which are not explained here. Some entries hold several experiments; the results are listed from low to high. Where survival is the endpoint, this PubChem deposit counts one and a half times the control or more as active, and values a quarter to a half above the control carry no call in these data; other NCI protocols may use other cut-offs. Some T/C values are followed by the survivors on the day toxicity was checked, most often the fifth; without a count, all were alive then.

On to `O=NN(CCF)C(=O)NC1CCS(=O)(=O)CC1`, for which the T/C (dose: 1.76 mg/kg/injection, schedule: Q01DX015 (ip), vehicle: other) is 135 % of control [9 of 10 alive]; the T/C (dose: 2.35 mg/kg/injection, schedule: Q02DX008 (ip), vehicle: other) is 143 % of control [9 of 10 alive]; the T/C (dose: 2.5 mg/kg/injection, schedule: Q01DX001 (ip), vehicle: other) was 142 % of control; the T/C (dose: 3.8 mg/kg/injection, schedule: Q## X032 (ip), vehicle: other) is 140 % of control; the T/C (dose: 4.0 mg/kg/injection, schedule: Q01DX001 (ip), vehicle: other) was 138 % of control; the T/C (dose: 13.0 mg/kg/injection, schedule: Q## X032 (ip), vehicle: other) is 125 % of control [7 of 10 alive]. The T/C was 605 [9 of 10 alive] and 688 % of control (dose: 21.0 mg/kg/injection, schedule: Q01DX001 (ip), vehicle: other, evaluated on day 46); 346 and 361 % of control (dose: 21.0 mg/kg/injection, schedule: Q01DX001 (ip), vehicle: other, run until all animals had died); 490 and 588 % of control [8 of 10 alive] (dose: 32.0 mg/kg/injection, schedule: Q01DX001 (ip), vehicle: other, evaluated on day 46); 349 [5 of 6 alive] and 361 % of control [4 of 6 alive] (dose: 32.0 mg/kg/injection, schedule: Q01DX001 (ip), vehicle: other, run until all animals had died); 275 % of control [8 of 10 alive] under setting [1]. The survivor count is 2 of 6, 3 of 6, 6 of 10 under setting [1]; 2 of 10 (dose: 60.0 mg/kg/injection, schedule: Q01DX001 (ip), vehicle: other); 0 of 10 and 10 of 10 (dose: 60.0 mg/kg/injection, schedule: Q01DX001 (ip), vehicle: saline with Tween-80); 1 of 6 (dose: 62.0 mg/kg/injection, schedule: Q01DX001 (ip), vehicle: other); 0 of 10 (dose: 72.0 mg/kg/injection, schedule: Q01DX001 (ip), vehicle: other); 1 of 10 (dose: 80.0 mg/kg/injection, schedule: Q01DX001 (ip), vehicle: other). Moreover, the survivor count runs as follows: (dose: 93.0 mg/kg/injection, schedule: Q01DX001 (ip), vehicle: other) 0 of 6; (dose: 120.0 mg/kg/injection, schedule: Q01DX001 (ip), vehicle: other) 0 of 10; (dose: 187.0 mg/kg/injection, schedule: Q01DX001 (ip), vehicle: other) 0 of 6; (dose: 250.0 mg/kg/injection, schedule: Q01DX001 (ip), vehicle: other) 0 of 6; (dose: 375.0 mg/kg/injection, schedule: Q01DX001 (ip), vehicle: other) 0 of 6; (dose: 500.0 mg/kg/injection, schedule: Q01DX001 (ip), vehicle: other) 0 of 6.

As to `CN=C(N)c1ccc(NC(=O)c2ccc(C(=O)Nc3ccc(C(N)=NC)cc3)c(N)c2)cc1`, the T/C by setting is: (dose: 1.0 mg/kg/injection, schedule: Q01DX Z (ip), vehicle: carboxymethylcellulose (CMC)) 138 % of control; (dose: 8.0 mg/kg/injection, schedule: Q01DX Z (ip), vehicle: carboxymethylcellulose (CMC)) 140 % of control [5 of 6 alive]; (dose: 22.5 mg/kg/injection, schedule: Q01DX001 (sc), vehicle: water) 130 % of control. The survivor count reads like this: (dose: 16.0 mg/kg/injection, schedule: Q01DX Z (ip), vehicle: carboxymethylcellulose (CMC)) 4 of 6; (dose: 32.0 mg/kg/injection, schedule: Q01DX Z (ip), vehicle: carboxymethylcellulose (CMC)) 1 of 6; (dose: 64.0 mg/kg/injection, schedule: Q01DX Z (ip), vehicle: carboxymethylcellulose (CMC)) 0 of 6.

For the compound `NC(=S)NNc1ccccc1`, under “dose: 400.0 mg/kg/injection, schedule: Q04DX002 (ip), vehicle: saline with Tween-80”, the survivor count was 3 of 3.

With `Cc1nc(C)c(Br)s1`, under setting [2], the survivor count is recorded as 6 of 6.

With `OC1(c2cccc3ccccc23)CCCCC1`, the survivor count under setting [2] is on record as 6 of 6.

Turning to `CCOC(=O)Cc1cc(=O)[nH][nH]c1=O`, the survivor count (dose: 75.0 mg/kg/injection, schedule: Q04DX002 (ip), vehicle: Klucel (hydroxypropylcellulose) (HPC)) is 3 of 3.

Regarding `COC(=O)c1[nH]ncc1N=NN(C)C`, the survivor count (dose: 600.0 mg/kg/injection, schedule: Q01DX001 (ip), vehicle: carboxymethylcellulose (CMC)) is reported as 2 of 6.

Turning to `CCCCNc1cc(Nc2ccc(Br)cc2)nc(N)n1`, the survivor count under setting [3] is listed as 1 of 4.

As to `CC1CN1C(=O)Nc1cccc2c(NC(=O)N3CC3C)cccc12` (configuration not stated), the T/C is, setting by setting: (dose: 3.61 mg/kg/injection, schedule: Q01DX009 (ip), vehicle: Klucel (hydroxypropylcellulose) (HPC)) 126 % of control; (dose: 5.42 mg/kg/injection, schedule: Q01DX009 (ip), vehicle: Klucel (hydroxypropylcellulose) (HPC)) 128 % of control; (dose: 8.22 mg/kg/injection, schedule: Q01DX009 (ip), vehicle: Klucel (hydroxypropylcellulose) (HPC)) 126 % of control; (dose: 25.0 mg/kg/injection, schedule: Q04DX003 (ip), vehicle: Klucel (hydroxypropylcellulose) (HPC)) 128 % of control; (dose: 28.0 mg/kg/injection, schedule: Q01DX009 (ip), vehicle: Klucel (hydroxypropylcellulose) (HPC)) 125 and 142 % of control; (dose: 33.0 mg/kg/injection, schedule: Q01DX001 (ip), vehicle: Klucel (hydroxypropylcellulose) (HPC)) 126 and 133 % of control. Besides, the T/C (dose: 33.0 mg/kg/injection, schedule: Q04DX003 (ip), vehicle: Klucel (hydroxypropylcellulose) (HPC)) was 134 and 135 % of control; the T/C (dose: 42.5 mg/kg/injection, schedule: Q01DX009 (ip), vehicle: Klucel (hydroxypropylcellulose) (HPC)) was 142 % of control; the T/C (dose: 50.0 mg/kg/injection, schedule: Q01DX001 (ip), vehicle: Klucel (hydroxypropylcellulose) (HPC)) is 143 % of control; the T/C (dose: 50.0 mg/kg/injection, schedule: Q04DX003 (ip), vehicle: Klucel (hydroxypropylcellulose) (HPC)) was 135 and 142 % of control; the T/C (dose: 75.0 mg/kg/injection, schedule: Q01DX001 (ip), vehicle: Klucel (hydroxypropylcellulose) (HPC)) is 126 % of control; the T/C (dose: 75.0 mg/kg/injection, schedule: Q04DX003 (ip), vehicle: Klucel (hydroxypropylcellulose) (HPC)) is 144 % of control. For the same compound, the T/C by setting is: (dose: 100.0 mg/kg/injection, schedule: Q01DX001 (ip), vehicle: Klucel (hydroxypropylcellulose) (HPC)) 132 % of control; (dose: 110.0 mg/kg/injection, schedule: Q04DX003 (ip), vehicle: Klucel (hydroxypropylcellulose) (HPC)) 140 % of control. The survivor count runs as follows: (dose: 63.0 mg/kg/injection, schedule: Q01DX009 (ip), vehicle: Klucel (hydroxypropylcellulose) (HPC)) 6 of 6; (dose: 170.0 mg/kg/injection, schedule: Q01DX009 (ip), vehicle: Klucel (hydroxypropylcellulose) (HPC)) 5 of 6; (dose: 255.0 mg/kg/injection, schedule: Q04DX003 (ip), vehicle: Klucel (hydroxypropylcellulose) (HPC)) 2 of 6.

Turning to `COc1ccc(OC)c2ncccc12`, the survivor count runs as follows: (dose: 200.0 mg/kg/injection, schedule: Q01DX001 (ip), vehicle: saline) 0 of 6; under setting [3], 0 of 6.

Consider `Fc1ccc(P(c2ccc(F)cc2)c2ccc(F)cc2)cc1`, for which the survivor count (dose: 100.0 mg/kg/injection, schedule: Q01DX009 (ip), vehicle: Klucel (hydroxypropylcellulose) (HPC)) is reported as 4 of 6; the survivor count (dose: 200.0 mg/kg/injection, schedule: Q04DX003 (ip), vehicle: Klucel (hydroxypropylcellulose) (HPC)) is given as 2 of 6; the survivor count (dose: 400.0 mg/kg/injection, schedule: Q04DX003 (ip), vehicle: Klucel (hydroxypropylcellulose) (HPC)) is 0 of 6.
